Measurements taken from PubChem BioAssay AID435023 (Broad Institute, 2010).
The median lay at about -31%. This is one part of the list. Measured potencies and affinities stand elsewhere. Entries without a call are filed as inconclusive in the source.

Protein sequences, listed by entry. Tags and fused reporters are not part of them. Lines headed by an entry give the natural chain unless they say otherwise; changes in a name come on top.
UniProt Q9QR71: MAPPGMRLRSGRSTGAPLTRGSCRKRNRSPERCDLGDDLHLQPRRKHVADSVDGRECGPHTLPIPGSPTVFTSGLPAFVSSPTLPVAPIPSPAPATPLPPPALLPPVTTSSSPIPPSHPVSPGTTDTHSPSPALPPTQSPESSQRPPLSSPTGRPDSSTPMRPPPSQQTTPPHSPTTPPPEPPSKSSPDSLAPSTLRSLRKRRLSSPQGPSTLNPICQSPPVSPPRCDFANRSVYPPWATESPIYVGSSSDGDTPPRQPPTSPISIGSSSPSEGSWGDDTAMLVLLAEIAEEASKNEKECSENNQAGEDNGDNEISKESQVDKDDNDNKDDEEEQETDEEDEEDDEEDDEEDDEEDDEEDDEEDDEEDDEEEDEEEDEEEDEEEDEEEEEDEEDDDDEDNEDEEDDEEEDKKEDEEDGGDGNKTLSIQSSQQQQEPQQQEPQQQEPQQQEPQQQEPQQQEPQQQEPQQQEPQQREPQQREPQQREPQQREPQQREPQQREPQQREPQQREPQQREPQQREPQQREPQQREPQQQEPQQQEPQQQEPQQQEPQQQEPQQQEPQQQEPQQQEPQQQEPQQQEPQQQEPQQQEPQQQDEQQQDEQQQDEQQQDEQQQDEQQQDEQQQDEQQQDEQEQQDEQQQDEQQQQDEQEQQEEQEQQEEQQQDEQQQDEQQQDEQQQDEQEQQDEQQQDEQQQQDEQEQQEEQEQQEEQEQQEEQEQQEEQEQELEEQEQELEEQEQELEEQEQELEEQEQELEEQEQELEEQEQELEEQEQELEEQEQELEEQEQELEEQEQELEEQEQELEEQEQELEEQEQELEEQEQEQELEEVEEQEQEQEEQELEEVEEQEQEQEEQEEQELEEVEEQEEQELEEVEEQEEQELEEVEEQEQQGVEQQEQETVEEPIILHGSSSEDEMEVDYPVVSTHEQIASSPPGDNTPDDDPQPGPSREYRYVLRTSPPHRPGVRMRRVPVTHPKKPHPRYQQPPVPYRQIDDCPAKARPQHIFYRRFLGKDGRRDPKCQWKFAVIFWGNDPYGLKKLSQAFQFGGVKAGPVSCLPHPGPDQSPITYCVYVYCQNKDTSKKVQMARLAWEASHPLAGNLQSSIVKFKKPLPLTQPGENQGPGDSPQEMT

target: Protein LANA1 (Human herpesvirus 8 type P (isolate GK18)) (UniProt Q9QR71); test: disruption of KSHV LANA peptide–nucleosome binding – biochemical, fluorescence polarization, cell-free, retest, dose response (AID 435023); details: at 7.5 µM (top of the series) unless noted

Compound	activity change, negative = inhibition
CC(NCC(=O)Nc1ccccc1C(=O)NC1CC1)c1cccc(C(F)(F)F)c1 (configuration not stated)	-14.2%
CCOC(=O)C1(Cc2ccccc2)CCN(Cc2cccn2-c2nccs2)CC1	28.6%
CC(NC(=O)C(=O)NN=C1CCCCCCCCCCC1)c1ccccc1 (configuration not stated)	-25.4%
CC(C)C1N=C2c3ccccc3N=C(SCC(=O)c3ccc(O)c(O)c3)N2C1=O (configuration not stated)	-31.4%
COc1ccc(-n2c(O)c(/C=C3\C=Nc4ccc(Br)cc43)c(=O)[nH]c2=O)cc1	-41.4%
COc1cccc(Cn2cc(C)cc(NC(=O)NCc3ccccc3)c2=O)c1	-35.4%
CCOc1ccccc1OCCCCN1CCCC1	-31.9%
O=C(CC(c1ccccc1)(c1ccccc1)c1ccccc1)N[C@@H](Cc1ccccc1)C(=O)O	24.1%
CN1CCN(C(=O)C2=C[C@H](c3ccc(Br)cc3)C[C@H](OCCCCO)O2)CC1	-7.26% [at 3.8 µM]
CCC(C(=O)NC1CC1)n1nc(C)c2c(C)n(-c3ccccc3)nc2c1=O (configuration not stated)	-59.6%
CCOc1ccccc1NC(=O)NCCN1CCCCC1	-35.3%
CCOC(=O)C(C)On1c(-c2cccc(Cl)c2)nc2ccc([N+](=O)[O-])cc21 (configuration not stated)	34.8%

A second format for two compounds above:

| Compound | activity change, negative = inhibition |
| --- | --- |
| CC(C)C1N=C2c3ccccc3N=C(SCC(=O)c3ccc(O)c(O)c3)N2C1=O (configuration not stated) | -31.4% |
| CCOc1ccccc1NC(=O)NCCN1CCCCC1 | -35.3% |
